This passage reports binding signal results from publication PMC7819943, “Rice protein-binding microarrays: a tool to detect cis-acting elements near promoter regions in rice”.

Protein sequences, listed by entry. Tags and fused reporters are not part of them.
UniProt Q0JBA9, entry or part of it: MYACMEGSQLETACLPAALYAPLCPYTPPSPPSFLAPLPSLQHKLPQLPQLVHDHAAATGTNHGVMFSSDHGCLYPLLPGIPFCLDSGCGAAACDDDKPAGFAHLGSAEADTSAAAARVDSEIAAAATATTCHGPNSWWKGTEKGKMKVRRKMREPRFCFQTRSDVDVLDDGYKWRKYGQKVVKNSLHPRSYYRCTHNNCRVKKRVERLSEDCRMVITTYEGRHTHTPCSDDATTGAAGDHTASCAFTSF

Some of the results follow.

The target in the assay is OsWRKY34 (Oryza sativa, UniProt Q0JBA9 1-250). Briefly: protein-binding microarray (RPBM); PBS, 2% BSA, 51.3 ng/ul salmon testes DNA, 50 uM zinc acetate, 200 nM TF, 25 C, 1 h; high values mean tight binding. The following applies: protein: recombinant; tags: N-terminal polyhistidine and DsRed monomer fusion (pET32a); label: CyDye5-dUTP incorporated in the synthesized complementary strand; 3' TTTTT single-stranded linker to array surface; dsDNA, one strand shown. The procedure, abridged:
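Ni–NTA purification followed expression in E. coli BL21-CodonPlus of transcription factors fused N-terminally to a polyhistidine tag and DsRed. At 200 nM in PBS with 2% BSA, salmon testes DNA and 50 µM zinc acetate, the protein was incubated for 1 h at 25 °C with a custom Agilent array that had been primer-extended with Cy5-dUTP and blocked with 2% BSA. After washing, the array was read on an Axon 4000B scanner. The binding signal is per-feature fluorescence intensity in arbitrary units.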
With “AAGGAAGGTGGTTTGACTTTAGTTAGGCGTTTCATGAGCCCGGAGTCACCTAGTGCAG”, the binding signal is 8930 fluorescence intensity (a.u.). For “TTCAGTTTTCTCTCGAGTCAACGGCGGTTTGGAAGCAGCACGGAGTCACCTAGTGCAG” the value was 8700 fluorescence intensity (a.u.); for “TGGCTCAGCGACACCGCCCGTTCACACGCCTCCACTGCACCGGAGTCACCTAGTGCAG”, 8750 fluorescence intensity (a.u.); for “ACTTGTCATTGGGTTTAGGTAACTCCTCAAGCTCATCAGACGGAGTCACCTAGTGCAG”, 8720 fluorescence intensity (a.u.). As for “ATAAATGACTTTTTACCTACTCCGCCACACCTTTTACTACCGGAGTCACCTAGTGCAG”, the binding signal was 8170 fluorescence intensity (a.u.). As for “TGTAAGTCATTCCACCATTTCCCACATTCATATTGATGCCCGGAGTCACCTAGTGCAG”, the binding signal is 8890 fluorescence intensity (a.u.). Consider “TAGTTGTGGTGCTAATGTCTCTAACGGTTCTGCGGAGAATCGGAGTCACCTAGTGCAG”, for which the binding signal was 9660 fluorescence intensity (a.u.). Consider “AAAACATACCACTTCAAATTTTTGTTCTTTTTCTTGTTTCCGGAGTCACCTAGTGCAG”, for which the binding signal was 10500 fluorescence intensity (a.u.). Turning to “CTGGATACTGCACAAGAGATGACAGTTCAACACTTGACAGCGGAGTCACCTAGTGCAG”, the binding signal is 9570 fluorescence intensity (a.u.). As to “TTGTTTGATATATTCTATTTGCTTTGATATCTTAGTATAGCGGAGTCACCTAGTGCAG”, the binding signal is 8390 fluorescence intensity (a.u.). With “GAGAGATTCCTGGCTTCCTGCCTCACGCGCACGCACACCACGGAGTCACCTAGTGCAG” the figure was 8230 fluorescence intensity (a.u.); with “TGTGGTCAAATATTTTTGGGTTCAACTTCACCATTCCCTTCGGAGTCACCTAGTGCAG”, 10800 fluorescence intensity (a.u.); with “ATCTATCCACGGTTCAGCTCTGCTATTGGTCTCAGTGTCCCGGAGTCACCTAGTGCAG”, 8140 fluorescence intensity (a.u.). On to “CGAAGGGGAGGGTATTTGGTTAATTGTGAAACGTAAAAGTCGGAGTCACCTAGTGCAG”, for which the binding signal was 10300 fluorescence intensity (a.u.). With “CCACACCCTGATGGCGCCGCCATCGTTCTTTTCTGGAGTTCGGAGTCACCTAGTGCAG” the figure was 9750 fluorescence intensity (a.u.); with “GTTCCAAAGTTTTTTTTTTTCAAACTTTCAACTTTCCATCCGGAGTCACCTAGTGCAG”, 8400 fluorescence intensity (a.u.); with “TACCGTCCGATCCGGCTCCCATCTATATATTCCACTCGCTCGGAGTCACCTAGTGCAG”, 9220 fluorescence intensity (a.u.). For “AACGACCAATATTGGTATGTACTACCTCTGTTTCTTATTACGGAGTCACCTAGTGCAG”, the binding signal was 9420 fluorescence intensity (a.u.). For “GCTTGGTCCATACCTTGTTTTCCTATCATCCACTGTCAATCGGAGTCACCTAGTGCAG” the value was 9390 fluorescence intensity (a.u.); for “TTTTCACCAAACATGTTTGGGACCTTTGGGTAGGGGTGGGCGGAGTCACCTAGTGCAG”, 10600 fluorescence intensity (a.u.).

“TACCTCTCACTCGTTCGACTTAAAGGACTGTTGTACCTGCCGGAGTCACCTAGTGCAG”: the binding signal is 9390 fluorescence intensity (a.u.).

With “CTCATCTCCCTTTCATATCCCCTGCTTCCTCTCCGTCCATCGGAGTCACCTAGTGCAG”, the binding signal was 10700 fluorescence intensity (a.u.). Take “CGGCAGCTTAATCCTCTCGTCATCTCCATCAATCCATCGTCGGAGTCACCTAGTGCAG”: the binding signal is 8110 fluorescence intensity (a.u.).

Take “GAACTCCATTTTGCATTTTCGCTCCAGCTTTCACCCGTTTCGGAGTCACCTAGTGCAG”: the binding signal was 8040 fluorescence intensity (a.u.).

As for “CGGATCAGTGCTTGTTCTATTATATCATATTGCTAGCCGACGGAGTCACCTAGTGCAG”, the binding signal was 8110 fluorescence intensity (a.u.). For “AACAATGAACGGTCCAGATTTACTCTAAACCAATTTACCGCGGAGTCACCTAGTGCAG”, the binding signal is 8110 fluorescence intensity (a.u.). Take “TATTACACGCTCCCTTTCTTTGAGCGTATAGTTGAGAACACGGAGTCACCTAGTGCAG”: the binding signal is 8530 fluorescence intensity (a.u.).

Take “ATCACCTTTGCCACCTCTCGCTACGCTATCCCCGTATAAACGGAGTCACCTAGTGCAG”: the binding signal was 10600 fluorescence intensity (a.u.). For “AGTTTTGCCCATCTCGAAATCAGGTTTTGAGCTTAGCTGTCGGAGTCACCTAGTGCAG” the value was 9710 fluorescence intensity (a.u.); for “CTTCTTCCATCCAACCCATTGCATGGTGTATTTTCCATATCGGAGTCACCTAGTGCAG”, 8320 fluorescence intensity (a.u.). As to “GGAAGATCCCTCGGCGTTTCTCACTGTTCTGTTGCCTTAACGGAGTCACCTAGTGCAG”, the binding signal was 14800 fluorescence intensity (a.u.). With “TAACTGAAACCATTCTTCTCGTCGATCAAATCATCCAAGTCGGAGTCACCTAGTGCAG”, the binding signal was 9480 fluorescence intensity (a.u.).

Consider “GCTCATGTCTGACTCCTTTGTTTGCTCTTTGCTCATTTTACGGAGTCACCTAGTGCAG”, for which the binding signal is 8660 fluorescence intensity (a.u.).

On to “AGTATGTACCTTTCGTTTTGACTTTGCCCTGCGAGCCATGCGGAGTCACCTAGTGCAG”, for which the binding signal was 12000 fluorescence intensity (a.u.).

For the sequence “CTCCACCGGCGAGTGCATCCGTACGGATCTCCCGGAGCTCCGGAGTCACCTAGTGCAG”, the binding signal is 8660 fluorescence intensity (a.u.). On to “CCCCATTTTTAAAACGAGTTGGAGCCAAACCCACTTCCAGCGGAGTCACCTAGTGCAG”, for which the binding signal was 8260 fluorescence intensity (a.u.). For “ATTAATTTCTATTGGTCCAACTACATGCAATATTTATAACCGGAGTCACCTAGTGCAG”, the binding signal is 8130 fluorescence intensity (a.u.). For “ATTTTGGTCAAATTTAAACTAATCTAAGTTTGACTAATTTCGGAGTCACCTAGTGCAG” the value was 8610 fluorescence intensity (a.u.); for “TCCTCGGACTCTTCGTCGTTCCAAGTTCTCAAGTTCATCGCGGAGTCACCTAGTGCAG”, 9600 fluorescence intensity (a.u.). On to “CCCGTCCCTAATTAACCGCCGTTCCTCTCGCGCCTCACCACGGAGTCACCTAGTGCAG”, for which the binding signal is 9550 fluorescence intensity (a.u.). As for “GTTTCCATAGCATTACACTTTTGTAACTATTATTGTTTTGCGGAGTCACCTAGTGCAG”, the binding signal was 9760 fluorescence intensity (a.u.). For “ATTGGTAGTTTTTTTGTGTGTATGAAAGTTTTCGATGTGACGGAGTCACCTAGTGCAG”, the binding signal was 8070 fluorescence intensity (a.u.).

As for “CGCGACGACGACTAGTTTATTTTGCACCACGTACGCACACCGGAGTCACCTAGTGCAG”, the binding signal is 8700 fluorescence intensity (a.u.). Consider “AGGCTAATCCAATCACCGAGCGCCACTTGTCTTCGTCTTCCGGAGTCACCTAGTGCAG”, for which the binding signal was 8430 fluorescence intensity (a.u.). “CCTCCGTTTCTATATATTTAATATTGTTGACTTTTTAGCACGGAGTCACCTAGTGCAG”: the binding signal was 12000 fluorescence intensity (a.u.). As to “CCTCCTATCCAAATTCCAACTTTCTTTGTTGTCTCACTTTCGGAGTCACCTAGTGCAG”, the binding signal is 11300 fluorescence intensity (a.u.). As for “TGTTCTAATGATCTTCTGTTCACCCTGCTTCTGATTTTTACGGAGTCACCTAGTGCAG”, the binding signal was 10500 fluorescence intensity (a.u.). In the case of “CTTGAAGTCCATTGCACACTGTTTTTCCTCTCTCAACTATCGGAGTCACCTAGTGCAG”, the binding signal was 10200 fluorescence intensity (a.u.). Consider “GTGCCTACTGTCAGGTATGCAATCGATCCGGTCACGCAGCCGGAGTCACCTAGTGCAG”, for which the binding signal was 8150 fluorescence intensity (a.u.). For “TTTTTTTTCACTATGCTTAGCACTCGTTTCACTATGCTTACGGAGTCACCTAGTGCAG” the value was 8310 fluorescence intensity (a.u.). For “CAAGAACGTGCTTTGTTTTGATCTATGTTGCAACATCATCCGGAGTCACCTAGTGCAG” the value was 8480 fluorescence intensity (a.u.).

As to “GTGGTAGTCGAACGTGCCGAGCGAGTAGGTGGGGCGGGCGCGGAGTCACCTAGTGCAG”, the binding signal is 11700 fluorescence intensity (a.u.).

As to “TCGACTTGTATACGCACACTGCAACTTGCTTGCTTCCTCACGGAGTCACCTAGTGCAG”, the binding signal was 11200 fluorescence intensity (a.u.). For the sequence “TCTGATTCGTTGGGTTGTGTGATGTGCAAAAGCTTAGGTTCGGAGTCACCTAGTGCAG”, the binding signal was 8200 fluorescence intensity (a.u.).
